{"sequences": {"note": "By UniProt entry, the sequences of proteins in these tests, tags left out.", "UniProt P29590": "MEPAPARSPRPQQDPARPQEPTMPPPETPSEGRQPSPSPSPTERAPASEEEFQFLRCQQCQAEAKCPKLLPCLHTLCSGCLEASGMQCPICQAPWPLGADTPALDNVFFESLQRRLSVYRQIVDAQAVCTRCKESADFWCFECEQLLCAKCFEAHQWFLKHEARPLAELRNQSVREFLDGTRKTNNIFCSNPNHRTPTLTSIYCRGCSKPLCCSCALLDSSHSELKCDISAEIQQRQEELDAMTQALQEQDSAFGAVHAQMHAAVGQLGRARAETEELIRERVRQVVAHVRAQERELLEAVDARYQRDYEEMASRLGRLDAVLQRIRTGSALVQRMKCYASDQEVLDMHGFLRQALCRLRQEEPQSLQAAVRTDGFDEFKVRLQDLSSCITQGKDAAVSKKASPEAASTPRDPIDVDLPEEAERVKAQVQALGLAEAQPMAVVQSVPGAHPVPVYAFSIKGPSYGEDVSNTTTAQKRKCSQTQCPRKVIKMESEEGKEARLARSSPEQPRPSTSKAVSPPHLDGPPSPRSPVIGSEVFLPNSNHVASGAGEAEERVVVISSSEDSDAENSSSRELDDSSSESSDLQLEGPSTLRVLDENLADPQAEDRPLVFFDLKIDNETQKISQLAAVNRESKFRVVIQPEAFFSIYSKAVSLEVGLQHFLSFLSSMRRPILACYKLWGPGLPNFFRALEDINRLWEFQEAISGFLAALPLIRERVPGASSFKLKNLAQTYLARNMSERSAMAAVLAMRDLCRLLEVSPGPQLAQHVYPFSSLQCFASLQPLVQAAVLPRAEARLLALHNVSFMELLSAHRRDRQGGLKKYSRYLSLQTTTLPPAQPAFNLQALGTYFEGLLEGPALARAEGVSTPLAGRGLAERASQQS", "UniProt F5HDE4": "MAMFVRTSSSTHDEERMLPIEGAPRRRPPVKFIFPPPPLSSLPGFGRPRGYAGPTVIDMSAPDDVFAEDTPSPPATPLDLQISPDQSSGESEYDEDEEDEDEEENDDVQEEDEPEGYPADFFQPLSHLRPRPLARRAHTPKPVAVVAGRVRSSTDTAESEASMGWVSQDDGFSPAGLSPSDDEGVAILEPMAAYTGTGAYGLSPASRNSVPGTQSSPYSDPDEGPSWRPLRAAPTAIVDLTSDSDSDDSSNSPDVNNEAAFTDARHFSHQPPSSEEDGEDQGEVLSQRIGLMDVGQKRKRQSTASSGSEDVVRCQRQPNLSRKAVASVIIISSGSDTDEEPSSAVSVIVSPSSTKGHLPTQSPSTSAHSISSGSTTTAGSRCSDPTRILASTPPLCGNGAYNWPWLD"}, "source": "paper PMC11781660", "molecules": {"B1": {"name": "wild-type IKKε, transfected (protein, UniProt Q14164 1-716)", "chain": "MQSTANYLWHTDDLLGQGATASVYKARNKKSGELVAVKVFNTTSYLRPREVQVREFEVLRKLNHQNIVKLFAVEETGGSRQKVLVMEYCSSGSLLSVLESPENAFGLPEDEFLVVLRCVVAGMNHLRENGIVHRDIKPGNIMRLVGEEGQSIYKLTDFGAARELDDDEKFVSVYGTEEYLHPDMYERAVLRKPQQKAFGVTVDLWSIGVTLYHAATGSLPFIPFGGPRRNKEIMYRITTEKPAGAIAGAQRRENGPLEWSYTLPITCQLSLGLQSQLVPILANILEVEQAKCWGFDQFFAETSDILQRVVVHVFSLSQAVLHHIYIHAHNTIAIFQEAVHKQTSVAPRHQEYLFEGHLCVLEPSVSAQHIAHTTASSPLTLFSTAIPKGLAFRDPALDVPKFVPKVDLQADYNTAKGVLGAGYQALRLARALLDGQELMFRGLHWVMEVLQATCRRTLEVARTSLLYLSSSLGTERFSSVAGTPEIQELKAAAELRSRLRTLAEVLSRCSQNITETQESLSSLNRELVKSRDQVHEDRSIQQIQCCLDKMNFIYKQFKKSRMRPGLGYNEEQIHKLDKVNFSHLAKRLLQVFQEECVQKYQASLVTHGKRMRVVHETRNHLRLVGCSVAACNTEAQGVQESLSKLLEELSHQLLQDRAKGAQASPPPIAPYPSPTRKDLLLHMQELCEGMKLLASDLLDNNRIIERLNRVPAPPDV"}, "B2": {"name": "IκB kinase ε (IKKε), endogenous (protein, UniProt Q14164 1-716)", "chain": "B1 chain"}}, "key": {"[1]": {"biological_target": "T1, IκB kinase ε (IKKε), endogenous (human (endogenous in SLK-iBAC and BCBL1)) (UniProt Q14164)", "T1 sequence": "B1 chain", "test": "co-IP; endogenous proteins; lysates of SLK-iBAC cells (with or without Dox/NaB, 48 h) or BCBL1 cells (with or without TPA, 72 h); IP and IB with indicated antibodies"}, "[2]": {"biological_target": "IKKε amino acid 300–500 (UniProt Q14164)", "test": "co-IP; HEK293T co-transfected with indicated plasmids (with or without ORF45 co-expressed), lysed 48 h after transfection in 50 mM Tris-HCl pH 7.4, 150 mM NaCl, 1% NP-40, 1 mM EDTA, 10% glycerol; anti-Flag M2 agarose, 4 h at 4°C"}, "[3]": {"biological_target": "IKKε amino acid 500–716 (UniProt Q14164)", "test": "co-IP; HEK293T co-transfected with indicated plasmids (with or without ORF45 co-expressed), lysed 48 h after transfection in 50 mM Tris-HCl pH 7.4, 150 mM NaCl, 1% NP-40, 1 mM EDTA, 10% glycerol; anti-Flag M2 agarose, 4 h at 4°C"}, "[4]": {"biological_target": "PML, transfected (UniProt P29590)", "test": "co-IP; HEK293T co-transfected with indicated plasmids (with or without ORF45 co-expressed), lysed 48 h after transfection in 50 mM Tris-HCl pH 7.4, 150 mM NaCl, 1% NP-40, 1 mM EDTA, 10% glycerol; anti-Flag M2 agarose, 4 h at 4°C"}, "[5]": {"biological_target": "PML, endogenous (human (endogenous in SLK-iBAC and BCBL1)) (UniProt P29590)", "test": "co-IP; endogenous proteins; lysates of SLK-iBAC cells (with or without Dox/NaB, 48 h) or BCBL1 cells (with or without TPA, 72 h); IP and IB with indicated antibodies"}}, "note": "No constants are given. Whether binding was seen depends on the method and setting. In cells and extracts the contact can be indirect. Some entries that bind do so weakly or less than the wild type."}
{"molecule": "KSHV ORF45, expressed from the viral genome during lytic replication (from UniProt F5HDE4 1-407)", "values": [{"measurement": "binding", "setting": "[1]", "value": "binds"}]}
{"molecule": "KSHV ORF45, transfected (from UniProt F5HDE4 1-407)", "values": [{"measurement": "binding", "setting": "[2]", "value": "binds"}, {"measurement": "binding", "setting": "[3]", "value": "binds"}]}
{"molecule": "B1", "values": [{"measurement": "binding", "setting": "[4]", "value": "binds"}]}
{"molecule": "B2", "values": [{"measurement": "binding", "setting": "[5]", "value": "binds"}]}
